The whole screen tested about 330,000 compounds, of which about 7,700 (2.3%) were called active. Inconclusive results, whose numbers are uncertain, are shown with a selection of clear calls. The call rests on the fitted dose curve; in most records, active means well fitted inhibition curve with a large enough effect; inconclusive means small, poorly fitted or top-dose-only effect, or effect the other way; inactive means flat fitted curve, though single readings scatter. Where the call is inconclusive, the potency comes from a doubtful curve fit.
Test: qHTS screen for small molecules that inhibit ELG1-dependent DNA repair in human embryonic kidney (HEK293T) cells expressing luciferase-tagged ELG1; further: nearly all actives have a fitted effect of over 55% in size
Settings: HEK293T ELG1-luciferase reporter, luminescence, 16 h, DNA damage induced by 5-fluorouridine; series mostly up to 46.1 µM
Procedure, shortened: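 5-Fluorouridine DNA damage + compound/DMSO, 2,000 cells/well, 16 h, 37 °C/5% CO2. ONE-Glo, 30 min RT, luminescence. Readout = decrease in reporter signal.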
Potency means the concentration at half of the fitted maximal effect.

| Structure (SMILES) | Potency |
| --- | --- |
| C/C(=N/Nc1nc(C)cc(-c2ccccc2)n1)c1ccco1 | inactive |
| COc1ccc(C(=O)NC2CCCCCC2)cc1S(=O)(=O)Nc1ccc(Br)cc1 | inactive |
| CCOC(=O)Cn1cnc2c(sc3nc(C)cc(C)c32)c1=O | inconclusive: 9.2 µM [activator, partial curve] |
| O=c1c2ccccc2nc2n1C(CSc1ccc(F)cc1)CS2 (stereo unspecified) | inactive |
| COc1ccc(S(=O)(=O)NCCSCc2cccc(C)c2)cc1Br | inconclusive: 1.84 µM [inhibitor, single point] |
| CCOC(=O)N/N=C(\C)c1cccs1 | inconclusive: 18.3 µM [activator, partial curve] |
| Nc1nc(SCC(=O)NC2CCCCC2)[nH]c(=O)c1-c1ccccc1 | inconclusive: 3.66 µM [inhibitor, partial curve, poor fit] |
| O=C(N/N=C/c1ccccn1)c1cc(-c2ccccc2)nc2ccccc12 | inactive |
| Cc1cccnc1N(C(=O)Nc1cccc(Cl)c1)C1=NCC(C)(C)S1 | inactive |
| Cc1ccc(C(=O)N/C(=C\c2cccs2)c2nc3ccccc3[nH]2)cc1 | inactive |
| Fc1ccc(Nc2ncnc3sccc23)cc1 | inactive |
| COC(=O)CN(c1ccc(C)c(Cl)c1)S(C)(=O)=O | inconclusive: 29.1 µM [inhibitor, single point] |
| O=C(NCc1nc2ccccc2[nH]1)C1=C[C@@H](C2CCCCC2)C[C@@H](OCCCCO)O1 | inconclusive: 29.1 µM [inhibitor, single point] |
| COC(=O)C1CCCN1S(=O)(=O)c1ccc2ccccc2c1 (stereo unspecified) | inactive |
| Cc1occc1-c1nnc(SCC(=O)NCCc2ccccc2)n1Cc1ccccc1 | inactive |
| Cc1ccc(-c2ccc(SCC(=O)Nc3cc(C)on3)nn2)cc1 | inconclusive: 16.4 µM [activator, partial curve] |
| CC(O)c1ccc(OCCN(C)c2ccccn2)cc1 (stereo unspecified) | inconclusive: 18.3 µM [activator, single point] |
| CCC(=O)Nc1nc(-c2cc([N+](=O)[O-])cs2)cs1 | inactive |
| CCc1cc(=O)oc2c(C)c(O[C@@H]3O[C@H](CO)[C@@H](O)[C@H](O)[C@H]3O)ccc12 | inactive |
| CCn1c(=O)cc(SCC(=O)N(C)Cc2ccccc2)c2ccccc21 | inconclusive: 20.6 µM [activator, single point] |
| Cc1ccc(S(=O)(=O)N(C)c2ccc(OCC(=O)Nc3nc(-c4ccccc4)cs3)cc2)cc1 | inconclusive: 20.6 µM [inhibitor, partial curve, poor fit] |
| COc1ccc(CCNC(=O)CCc2cn(C)c3ccccc23)c(OC)c1 | inactive |
| CCSc1nnc(-c2ccc(Cl)cc2Cl)o1 | inconclusive: 16.4 µM [activator, partial curve] |

| Structure (SMILES) | Potency |
| --- | --- |
| CCOC(=O)N1CCN(C(=O)c2ccc(N(Cc3ccccc3)S(C)(=O)=O)cc2)CC1 | inactive |
| Cc1c(C(=O)c2ccc(N(C)C)cc2)c2ccccn2c1CCC#N | inactive |
| Cc1onc(-c2ccccc2)c1C(=O)Nc1sc2c(c1C#N)CCC(C)C2 (stereo unspecified) | inconclusive: 29.1 µM [inhibitor, single point] |
| CCOC(=O)N1CCN(C(=O)CN(C)S(=O)(=O)c2ccc3c(c2)C(C)(C)C(=O)N3C)CC1 | inconclusive: 1.84 µM [activator, full curve, poor fit] |
| CCOC(=O)C1(CC2CCCCO2)CCN(Cc2cc3ccccc3[nH]2)CC1 (stereo unspecified) | inconclusive: 23.1 µM [inhibitor, partial curve, poor fit] |
| CN(C)Cc1c(C(=O)N/N=C/c2cccc3ccccc23)nnn1-c1nonc1N | inactive |
| C/C(=N/NC(=O)c1ccc(C)s1)c1cccc(NC(=O)COc2ccc(Cl)cc2Cl)c1 | inconclusive: 29.1 µM [activator, single point] |
| O=C(/C=C/c1cccc([N+](=O)[O-])c1)Nc1cc(C(=O)O)cc(C(=O)O)c1 | inactive |
| CC(C)(C)OC(=O)NCCCCCNC(=O)c1[nH]cnc1C(=O)Nc1nccs1 | inconclusive: 20.6 µM [inhibitor, single point] |
| Nc1nc(SCC(=O)NCCO)nc2sc3c(c12)CCCC3 | inconclusive: 23.1 µM [activator, single point] |
| COc1cc(/C=N/NC(=O)CN2CCCCC2)ccc1OCc1ccc(Br)cc1 | inconclusive: 18.4 µM [activator, partial curve] |
| CC1(C)CNC(=O)c2sc(N3CCCCC3)nc2C1 | inconclusive: 18.4 µM [activator, partial curve] |
| Cc1cccc(NC(=S)N/N=C2/CCCCc3ccccc32)c1 | inactive |
| O=C(NC1CCCCC1)c1cc(-c2ccccc2Cl)on1 | inconclusive: 20.6 µM [activator, partial curve] |
| Cc1ccc(-c2nn3c(C)nnc3c3ccccc23)cc1S(=O)(=O)NC(C)c1ccccc1 (stereo unspecified) | inconclusive: 32.6 µM [inhibitor, single point] |
| COc1cc(/C(C)=N/NC(=O)CSc2nnc(C)s2)ccc1O | inconclusive: 32.6 µM [activator, partial curve, poor fit] |
| CC1O[C@H](OC2C(COC3OC(CO)C(O)[C@H](O)C3O)OC(OC3CC[C@]4(C)C(CC[C@@]5(C)[C@@H]4C=C[C@]46OC[C@@]7(CCC(C)(C)C[C@H]74)C(O)C[C@@]56C)C3(C)C)C(O)C2O)C(O)C(O)C1O (stereo partly specified) | inconclusive: 13 µM [activator, partial curve, poor fit] |
| CC1(C)Cc2cccc(Oc3cc(NN4CCCCC4)c([N+](=O)[O-])cc3[N+](=O)[O-])c2O1 | inactive |
| CCC(C(=O)NCCC(C)C)n1ccc2cc(S(=O)(=O)N3CCCCC3)ccc21 (stereo unspecified) | inactive |
| O=C1CSC(=S)N1c1cccc(O)c1 | inactive |
| CCOC(=O)c1cc(C(=O)NN)c(C)nc1C | inactive |
| COc1cc2nc(N(CCCN(C)C)C(=O)c3ccc(S(=O)(=O)N4CCc5ccccc54)cc3)sc2cc1OC | inconclusive: 20.6 µM [activator, single point] |
| N#CCCN=C(NS(=O)(=O)c1ccccc1)c1ccccc1 | inactive |

— PubChem BioAssay AID504467 (National Center for Advancing Translational Sciences (NCATS), 2011)
